Source: PubChem BioAssay AID1259254 (NCATS, 2017)
Purpose: 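Gene knock-downs that lead to re-replication, shown by excess G2 DNA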 (primary screen). Cell system: human HCT116 colorectal cancer cells. Knock-down reagent: single siRNA against human genes. Time to read-out: 3 days. Read-out: 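Imaged Hoechst DNA stain sorts each cell into a cycle phase by DNA amount; per plate, G2 fraction set to 0% for non-targeting and 100% for GMNN siRNA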. Direction: G2 robust z-score and G2 cells, % of GMNN control: higher = more G2 cells, more excess DNA replication; raw share of cells in G2: higher = larger share of cells with G2 DNA content. Rule for the call: 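Active siRNAs have a G2 robust z of 5 or more median absolute deviations over the median, which in these data means about 38% or higher of GMNN control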.
This is an unselected part of about 59,000 reagents. About 1,550 of all reagents (2.6%) count as active. 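G2 share is only a proxy for re-replication; each gene was hit by three separate siRNAs, and active genes were retested.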 The raw values are shown without normalisation. Entries without a mark were called inactive. The numbers tell different reagents against one gene apart. No sequences are given here. The record does not give: the amount of reagent.

target	siRNA no.	G2 robust z-score	G2 cells, % of GMNN control	raw share of cells in G2 (%)
CLCN4	1	0.665	7.64	8.07
CLCN4	2	-1.1	-4.76	3.17
CLCN4	3	-0.0176	2.84	5.49
DEFA4	1	-0.0934	2.31	4.43
DEFA4	2	0.703	7.91	9.01
DEFA4	3	0.156	4.07	5.58
GRB14	1	-0.252	1.2	5.86
GRB14	2	-0.216	1.45	4.62
GRB14	3	-0.684	-1.85	2.8
CCSAP	1	0.821	8.74	7.47
CCSAP	2	0.127	3.86	4.33
CCSAP	3	-0.00926	2.9	3.63
PPARA	1	0.791	8.53	8.55
PPARA	2	-0.491	-0.49	4.38
PPARA	3	-0.205	1.53	4.46
GPR148	1	-0.441	-0.133	4.1
GPR148	2	0.763	8.33	7.84
GPR148	3	1.26	11.8	9.2
SPATA21	1	-0.889	-3.29	3.68
SPATA21	2	-0.447	-0.179	4.22
SPATA21	3	-1.33	-6.39	3.14
CREB1	1	0.599	7.19	7.62
CREB1	2	-0.747	-2.29	3.31
CREB1	3	-0.439	-0.124	4.92
BCKDK	1	5.25 (active)	39.9	18
BCKDK	2	-0.747	-2.29	4.36
BCKDK	3	1.13	10.9	7.17
PTPN1	1	-1.41	-6.93	2.54
PTPN1	2	0.586	7.09	6.44
PTPN1	3	1.18	11.3	6.88
CCDC30	1	1.25	11.7	8.42
CCDC30	2	-0.176	1.73	3.87
CCDC30	3	-0.258	1.15	3.55
CCDC30	4	-0.348	0.52	3.88
CCDC30	5	-0.629	-1.46	2.9
CCDC30	6	-0.705	-1.99	2.76
NPFF	1	-1.21	-5.55	3.31
NPFF	2	0.0102	3.04	5.92
NPFF	3	-0.431	-0.0675	4.68
SCAPER	1	2.59	21.2	12
SCAPER	2	0.375	5.61	6.67
SCAPER	3	-1.01	-4.16	1.94
BCL3	1	2.86	23.1	16.1
BCL3	2	1.04	10.3	7.85
BCL3	3	1.33	12.3	8.35
FASTKD4	1	-0.647	-1.59	4.61
FASTKD4	2	-0.393	0.203	4.03
FASTKD4	3	-0.389	0.231	3.49
ARL14EPL	1	-0.233	1.33	4.14
ARL14EPL	2	4.66	35.8	16.1
ARL14EPL	3	6.13 (active)	46.1	16.6
PIK3AP1	1	1.27	11.9	9.29
PIK3AP1	2	-0.813	-2.76	4.19
PIK3AP1	3	-0.697	-1.93	3.06
SUN5	1	4.63	35.6	17.6
SUN5	2	-0.713	-2.05	2.45
SUN5	3	0.517	6.6	4.97
RAX	1	1.3	12.1	8.72
RAX	2	-1.22	-5.62	1.65
RAX	3	-0.246	1.24	6.52
ANO5	1	0.449	6.12	5.8
ANO5	2	-0.402	0.14	3.18
ANO5	3	0.16	4.1	4.5
KCNV1	1	4.52	34.8	18
KCNV1	2	-0.121	2.12	5.5
KCNV1	3	1.05	10.3	8.41
ARC	1	0.876	9.13	6.59
ARC	2	1.4	12.8	10
ARC	3	-0.582	-1.12	3.67
PLCXD3	1	0.0759	3.5	5.19
PLCXD3	2	-0.327	0.667	3.55
PLCXD3	3	-0.408	0.0965	4.23
EEF1D	1	-0.574	-1.07	4.85
EEF1D	2	-1.27	-5.97	1.53
EEF1D	3	-0.0464	2.64	6.27
USP40	1	-0.613	-1.35	5.09
USP40	2	0.737	8.15	7.79
USP40	3	-0.934	-3.61	2.56
OCEL1	1	-0.759	-2.37	3.55
OCEL1	2	-1.34	-6.49	1.7
OCEL1	3	-0.461	-0.275	2.62
OSBPL8	1	-0.334	0.617	5.96
OSBPL8	2	-0.422	-0.00357	4.96
OSBPL8	3	-1.04	-4.37	2.83
DYNC1LI1	1	0.352	5.45	6.26
DYNC1LI1	2	-1.08	-4.64	3.85
DYNC1LI1	3	-0.642	-1.55	3.21
